Results are given in words; binding and its absence hold for the method and conditions named. In cells and extracts the contact can be indirect. Some binding calls cover weakened binding; strength is not graded here.

One molecule from PMC8000391 can be followed below.

This assay addresses T1, murine endothelial nitric oxide synthase (eNOS) (mouse (endogenous in murine mesenteric arteries)) (UniProt P70313).
T1 sequence: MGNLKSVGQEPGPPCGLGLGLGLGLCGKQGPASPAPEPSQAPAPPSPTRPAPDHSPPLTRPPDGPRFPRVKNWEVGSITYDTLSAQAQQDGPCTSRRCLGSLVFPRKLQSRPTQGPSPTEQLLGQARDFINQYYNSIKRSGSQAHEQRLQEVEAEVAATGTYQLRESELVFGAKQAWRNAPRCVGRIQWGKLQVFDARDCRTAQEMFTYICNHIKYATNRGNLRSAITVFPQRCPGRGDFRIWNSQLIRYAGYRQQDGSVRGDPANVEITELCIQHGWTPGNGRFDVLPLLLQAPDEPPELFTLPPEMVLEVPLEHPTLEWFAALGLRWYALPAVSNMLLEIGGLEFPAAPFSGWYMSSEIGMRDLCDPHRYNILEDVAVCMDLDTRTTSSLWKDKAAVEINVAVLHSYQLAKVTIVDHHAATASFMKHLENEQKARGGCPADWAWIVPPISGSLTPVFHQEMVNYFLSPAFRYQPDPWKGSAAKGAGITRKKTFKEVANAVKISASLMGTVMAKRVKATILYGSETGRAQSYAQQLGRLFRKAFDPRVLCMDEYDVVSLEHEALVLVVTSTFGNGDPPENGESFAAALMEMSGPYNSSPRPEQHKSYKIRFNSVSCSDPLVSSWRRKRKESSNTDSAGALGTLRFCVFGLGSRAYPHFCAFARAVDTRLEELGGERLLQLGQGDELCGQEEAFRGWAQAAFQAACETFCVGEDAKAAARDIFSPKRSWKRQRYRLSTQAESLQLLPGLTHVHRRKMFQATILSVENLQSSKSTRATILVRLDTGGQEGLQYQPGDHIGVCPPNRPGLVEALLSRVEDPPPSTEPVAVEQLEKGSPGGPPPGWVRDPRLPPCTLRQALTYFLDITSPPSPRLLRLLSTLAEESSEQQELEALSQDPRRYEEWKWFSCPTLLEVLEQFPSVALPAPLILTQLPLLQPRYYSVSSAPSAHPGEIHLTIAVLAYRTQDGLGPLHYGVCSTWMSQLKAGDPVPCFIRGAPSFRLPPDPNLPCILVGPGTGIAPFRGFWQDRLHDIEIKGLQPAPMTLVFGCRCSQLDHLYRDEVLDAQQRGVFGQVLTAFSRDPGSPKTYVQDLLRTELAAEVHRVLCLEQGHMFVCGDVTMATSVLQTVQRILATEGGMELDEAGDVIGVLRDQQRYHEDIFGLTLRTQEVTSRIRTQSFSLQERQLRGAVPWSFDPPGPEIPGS
The experiment in a line: proximity ligation; DuoLink In Situ kit on en face murine mesenteric arteries pinned on SYLGARD blocks; primary antibodies against GRHL3 and eNOS.

B1: endogenous murine Grainyhead-like 3 (GRHL3) (protein, UniProt Q5FWH3 1-603)
chain: MSNELDFRSVRLLKNDPVSFQKFPYSNEDEAWKTYLENPLTAATKAMMRVNGDEESVAALSFLYDYYMGPKEKRILSSSTGGRNDQGKKFYHSMDYEPDLAPLESPTHLMKFLTENVSGSPDYTDQLKKNNLLGLEGVLPTPGKTNTVPPGPSKLEASSMDSYLLPASDIYDNGSLNSLFESIHGVPPTQRWQPDSTFKDDPQESLLFPDILKTSPDPPCPEDYPGLKSDFEYTLGSPKAIHIKAGESPMAYLNKGQFYPVTLRTPAGGKGLALSSSKVKSVVMVVFDNDKVPVEQLRFWRHWHSRQPTAKQRVIDVADCKENFNTVQHIEEVAYNALSFVWNVNEEAKVFIGVNCLSTDFSSQKGVKGVPLNLQIDTYDCGAGTERLVHRAVCQIKIFCDKGAERKMRDDERKQFRRKVKCPDSSNNAGIKGCLLSGFRGNETTYLRPETDLETQPVLFIPNLHFSSLQRPGGVVPSAGHSSSDRLPLKRTCSPFAEEFEPLPSKQAKEDDLQRVLLYVRRETEEVFDALMLKTPDLKGLRNAISEKYGLPEENICKVYKKCKRGILVNMDNNIIQHYSNHVAFLLDMGELDGKIQIILKEL
Consider B1, for which the binding result is “binds”.
